This is one part of the list. Shown are side measurements of this screen, not its main read-out; they come without a call. Compounds called inactive in the main read-out are mostly missing here. The note in brackets gives the kind of curve behind each potency; many fits are weak.
Assay: qHTS Assay to Find Inhibitors of Chronic Active B-Cell Receptor Signaling
Conditions: ABC-DLBCL IkBa-CBG/CBR reporter, luminescence ratio (green luciferase fused to IkBa over red control in TMD8 lymphoma cells), 4 h
Procedure, shortened: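 Compounds up to 46 uM were incubated four hours with TMD8 cells whose green CBG68 luciferase is fused to IkappaBalpha; red CBR luminescence normalised the signal, and concentration-effect curves were fitted to fusion, red and ratio data.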

[1] = measured here: CBR red luminescence, cell number
[2] = measured here: IkBa-CBG green luminescence

Structure (SMILES)	AC50 [1]	AC50 [2]
COc1cccc(N2CC34C=CC(O3)C(C(=O)O)C4C2=O)c1 (centres undefined)	5.8 µM [rising, full curve]	–
Oc1cccc2c(-c3nn[nH]n3)ccnc12	5.17 µM [rising, partial curve, poor fit]	–
COc1ccc2ccccc2c1-c1csc(N)n1	3.55 µM [rising, single point]	–
COc1ccc2nc(NC(=O)c3cc(C)oc3C)sc2c1	10.3 µM [falling, partial curve, poor fit]	–
N#Cc1c(N)nc2c(c1-c1ccc3c(c1)OCO3)CCc1ccccc1-2	10.3 µM [rising, partial curve]	–
COc1cccc(/C=N/N2CCN(c3ccncc3S(=O)(=O)N3CCCCC3)CC2)c1	0.206 µM [falling, full curve, poor fit]	–
COCCNC(=O)c1ccc2c3n(nc2c1)-c1ccccc1CO3	7.94 µM [falling, partial curve, poor fit]	–
CCOC(=O)C1C(=O)CC(C)(O)C(C(=O)OCC)C1c1ccco1 (centres undefined)	25.9 µM [falling, single point]	–
O=C(CCn1c(=O)sc2ccccc21)Nc1nccs1	32.6 µM [falling, single point]	–
S=C(NCCc1ccccc1)NCc1cccc(Cl)c1	6.31 µM [falling, partial curve, poor fit]	–
O=C(O)CCn1cc(/C=C/C(=O)c2ccc(Cl)cc2)c(-c2ccc(Br)cc2)n1	0.411 µM [falling, partial curve, poor fit]	20.6 µM [rising, partial curve, poor fit]
C(=N\Nc1nc(-c2ccccc2)cs1)/c1cccs1	0.0146 µM [falling, full curve, poor fit]	–
O=C(NCCCn1ccnc1)c1ccc(Cl)c(Cl)c1	0.1 µM [rising, full curve, poor fit]	–
COc1ccccc1C(c1c(N)n(C)c(=O)n(C)c1=O)C(C)[N+](=O)[O-] (centres undefined)	12.6 µM [falling, partial curve, poor fit]	–
N#CC1=C(SCC(=O)c2ccccc2)NC2=C(C(=O)CCC2)C1c1ccco1 (centres undefined)	35.5 µM [falling, single point]	–
CCOCCn1ccc2c(OCC(=O)Nc3ccc(OC(F)(F)F)cc3)cccc2c1=O	10 µM [rising, single point]	–
CCCN(CCC)C(=O)C1CC(=O)OC12CCCCC2 (centres undefined)	22.4 µM [rising, single point]	–
COc1ccc(CCNC(=O)C/C(C)=N/NC(=O)c2ccc(N)cc2)cc1OC	2.91 µM [falling, partial curve]	–
O=C(NC(=S)Nc1ccc(Br)cc1)C1CCC1	0.355 µM [rising, partial curve, poor fit]	–
Cc1cc(C)c2c3c(sc2n1)C(=O)N(Cc1ccccc1)CC(=O)N3	6.51 µM [falling, single point]	–
Nc1nc(-c2cccnc2)nn1C(=O)c1ccc(Cl)cc1	4.47 µM [rising, full curve, poor fit]	–

Some of the entries so far, with each value named:
COc1cccc(N2CC34C=CC(O3)C(C(=O)O)C4C2=O)c1 (centres undefined)
  AC50 [1]: 5.8 µM [rising, full curve]
O=C(CCn1c(=O)sc2ccccc21)Nc1nccs1
  AC50 [1]: 32.6 µM [falling, single point]
S=C(NCCc1ccccc1)NCc1cccc(Cl)c1
  AC50 [1]: 6.31 µM [falling, partial curve, poor fit]
Cc1cc(C)c2c3c(sc2n1)C(=O)N(Cc1ccccc1)CC(=O)N3
  AC50 [1]: 6.51 µM [falling, single point]

Further structures

Structure (SMILES)	AC50 [1]	AC50 [2]
CSc1nc(-c2ccc(C)cc2)nc(N)c1C#N	0.355 µM [falling, full curve, poor fit]	–
CC(C)OCCCN1CN(S(=O)(=O)c2cccs2)c2nc3ccccc3nc21	3.55 µM [rising, single point]	–
COc1ccc(NC(=S)N(CCc2c(C)[nH]c3ccc(C)cc23)Cc2ccco2)cc1	29.1 µM [falling, single point]	–
COc1ccc(NC(=O)C2CCC2)cc1S(=O)(=O)Nc1cc(C)ccc1Br	29.1 µM [falling, single point]	–
Cc1ccc(CN(C)C(=O)c2ccccc2Oc2ccccc2)o1	7.08 µM [falling, partial curve, poor fit]	–
CCOc1ccc(N2C(=O)c3ccc(C(=O)OCC(=O)N(CC)C4CCS(=O)(=O)C4)cc3C2=O)cc1 (centres undefined)	7.08 µM [falling, partial curve]	–
CSc1nnnn1-c1ccc(C)c(Cl)c1	25.9 µM [rising, single point]	–
O=C(N/N=C/c1ccc(Br)cc1)c1ccc(F)cc1	10.3 µM [falling, partial curve]	–
Cc1oc(-c2ccccc2)cc1C(=O)NC(Cc1c[nH]c2ccccc12)C(=O)O (centres undefined)	0.0517 µM [rising, full curve]	0.058 µM [rising, full curve]
Cc1ccc(CC2CC(=O)N(c3ccc(C)cc3)C2=O)cc1 (centres undefined)	35.5 µM [rising, single point]	–
Cc1cccc(NC(=O)c2cc(NC(=O)c3ccco3)ccc2N2CCCCC2)c1	0.366 µM [falling, partial curve, poor fit]	–
CCOc1cc(CNCCO)cc(Br)c1OCc1ccccc1Cl	35.5 µM [falling, single point]	35.5 µM [rising, partial curve, poor fit]
O=C1/C(=C/c2cccs2)CCC1C1CCCC1 (centres undefined)	1.58 µM [rising, full curve, poor fit]	–
O=c1cc(-c2ccc(O)cc2)oc2cc(O)c(C3OC(CO)C(O)C(O)C3O)c(O)c12 (centres undefined)	25.1 µM [rising, single point]	–
O=C(COc1nc2ccccc2nc1N1CCOCC1)Nc1cccc(S(=O)(=O)N2CCCCC2)c1	29.1 µM [falling, single point]	–
CN(Cc1ccccc1)Cc1nc2scc(-c3ccccc3)c2c(=O)[nH]1	2.51 µM [rising, partial curve, poor fit]	–
O=S(=O)(c1ccc(Nc2ccc(-c3ccc4c(c3)OCCO4)nn2)cc1)N1CCCC1	23.1 µM [falling, single point]	–
COCCn1c(SCC(=O)Nc2nc(C)cs2)nnc1C(C)C	7.94 µM [falling, partial curve]	–
COc1ccc2cc(/C=C3\SC(=S)NC3=O)c(N3CCOCC3)nc2c1	0.82 µM [rising, full curve, poor fit]	–
Cc1ccc(S(=O)(=O)Nc2cccc(-c3ccc4nncn4n3)c2)cc1	29.1 µM [rising, single point]	11.6 µM [falling, partial curve]
Cc1cc(C)c2c(CN3CCCCC3C)cc(=O)oc2c1 (centres undefined)	14.1 µM [rising, single point]	–

Structure (SMILES)	AC50 [1]	AC50 [2]
COc1cc(/C=C(\C#N)C(=O)Nc2ccc(C(=O)O)cc2)ccc1OC(=O)c1cccc(F)c1	7.08 µM [falling, full curve]	–
COc1ccccc1C(C)NC(=O)c1ccc(C)o1 (centres undefined)	2.06 µM [falling, single point]	–
CCC(=O)Nc1c(S(=O)(=O)c2ccccc2)c2nc3ccccc3nc2n1Cc1ccccc1	9.2 µM [falling, partial curve]	8.2 µM [rising, partial curve, poor fit]
CC(C)c1ccc(-c2cc(C(=O)N3N=C(C(F)F)CC3(O)C(F)F)c3ccccc3n2)cc1 (centres undefined)	0.116 µM [rising, full curve, poor fit]	–
O=C(C(=O)N1CCN(c2ccccc2Cl)CC1)c1c[nH]c2ccccc12	15.8 µM [falling, single point]	–
O=C(CSc1nc2ccccc2c(=O)n1-c1ccccc1)N1CCN(CCO)CC1	3.55 µM [rising, full curve, poor fit]	–
CC(C)NC(=O)/C(C#N)=C\c1ccc(N(C)C)c(Br)c1	35.5 µM [falling, single point]	–
COc1ccc(OCCN(C)C(=O)c2cccc(S(=O)(=O)N(C)c3ccccc3)c2)cc1	0.517 µM [rising, partial curve, poor fit]	–
CCOC(=O)c1oc2ccc(/C=N/O)c(Cl)c2c1C	2.82 µM [rising, full curve, poor fit]	–
COc1ccc(-c2nn(CCC#N)cc2/C=N/O)cc1OC	12.6 µM [rising, partial curve]	–
CC1C(=O)C(C)C(c2ccc(Br)cc2)NC1c1ccc(Br)cc1 (centres undefined)	31.6 µM [rising, single point]	–
CC1(CC(=O)N/N=C/c2ccc(-c3ccc(Cl)cc3)o2)OCCO1	0.461 µM [rising, full curve, poor fit]	–
O=C(C1=C(O)C(=O)N(CCCN2CCOCC2)C1c1ccccn1)c1cccs1 (centres undefined)	35.5 µM [falling, single point]	–
O=C(CN1C(=O)NC2(CCCC2)C1=O)Nc1ccccc1N1CCCCC1	1.03 µM [falling, full curve]	–
COc1ccccc1OCCCC(=O)Nc1ccc2c(c1)OCCO2	22.4 µM [falling, partial curve, poor fit]	–
CN(CC(=O)Nc1ccc(Cl)cc1)C(=O)c1ccc(S(=O)(=O)Nc2ccccc2)cc1	25.9 µM [falling, single point]	–
Cc1ccc(NC(=O)C2OCCc3ccccc32)cc1C (centres undefined)	7.08 µM [rising, full curve, poor fit]	–
COC(=O)N1CC(c2ccccc2)CC1=O (centres undefined)	0.517 µM [falling, full curve, poor fit]	0.92 µM [rising, full curve, poor fit]
Cc1nnc(SCc2nnc(-c3ccccc3)o2)n(N)c1=O	29.1 µM [rising, single point]	–
Cc1cnc(=O)[nH]c1SCC(=O)c1ccc(F)cc1	0.112 µM [rising, full curve, poor fit]	–
Cc1ccccc1C(C)NC(=O)COC(=O)Cn1cc(C(F)(F)F)ccc1=O (centres undefined)	7.31 µM [rising, partial curve, poor fit]	–
